# Structures can show the parent of a compound that is named as a salt. The list shows a part of the results. Plates or batches differ in their baseline, so values are only roughly comparable.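 HCT116-GFP is a human colorectal cancer cell line that carries a KRAS mutation, is microsatellite-unstable and always makes green fluorescent protein; the immune cells came from healthy donors. Live-cell imaging of the green signal stood in for cancer cell survival, and activated immune cells alone cut survival to about half.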
# System: HCT116-GFP
# Assay: HCT116-GFP viability (GFP intensity) relative to untreated HCT116-GFP monoculture control, co-culture with activated PBMCs; higher = less cancer cell killing
# Settings: culture: co-culture with anti-CD3/IL2 activated PBMCs 1:1; 10 µM; 72 h
row,Structure (SMILES),HCT116-GFP viability [%]
1,Nc1nc(CC(=O)Nc2ccc(CCNC[C@H](O)c3ccccc3)cc2)cs1 [Mirabegron],69.6
2,CC(=O)[C@H]1CC[C@H]2[C@@H]3C=CC4=CC(=O)CC[C@@]4(C)[C@@H]3CC[C@]12C [Dydrogesterone],80
3,CN1[C@@H]2CC[C@H]1C[C@@H](OC(=O)c1c[nH]c3ccccc13)C2 [Tropisetron hydrochloride],69.2
4,Cc1cccc(C)c1OCC(C)N (stereo not given) [Mexiletine hydrochloride],53.1
5,N#Cc1cc(NC(=O)C(=O)O)c(Cl)c(NC(=O)C(=O)O)c1 [Lodoxamide],39.6
6,COc1ccc(/C=C/C(=O)Nc2ccccc2C(=O)O)cc1OC [Tranilast],56.5
7,CCOC(=O)C1=C(COCCN)NC(C)=C(C(=O)OC)C1c1ccccc1Cl (stereo not given) [Amlodipine],37.8
8,Cc1c(N(C)C)c(=O)n(-c2ccccc2)n1C [Amidopyrine],46.4
9,Oc1c(Cl)cc(Cl)c(Cl)c1Cc1c(O)c(Cl)cc(Cl)c1Cl [Hexachlorophene],18.4
10,Cc1cccc(C)c1NC(=O)C(C)N (stereo not given) [Tocainide hydrochloride],37.3
11,CCCCc1cc2ccccc2c(OCCN(C)C)n1 [Dimethisoquin hydrochloride],99.4
12,CC(C(=O)O)c1ccc2c(c1)[nH]c1ccc(Cl)cc12 (stereo not given) [Carprofen],36.2
13,CN(C)C(=O)C(CCN1CCC(O)(c2ccc(Cl)cc2)CC1)(c1ccccc1)c1ccccc1 [Loperamide hydrochloride],35.7
14,CC(C(=O)O)c1ccc(-c2ccccc2)c(F)c1 (stereo not given) [Flurbiprofen],70.5
15,O=C(OCC(O)CO)c1ccccc1Nc1ccnc2cc(Cl)ccc12 (stereo not given) [Glafenine hydrochloride],70.4
16,C[C@H]1O[C@@H](O[C@H]2[C@@H](O)C[C@H](O[C@H]3[C@@H](O)C[C@H](O[C@H]4CC[C@@]5(C)[C@H](CC[C@@H]6[C@@H]5C[C@@H](O)[C@]5(C)[C@@H](C7=CC(=O)OC7)CC[C@]65O)C4)O[C@@H]3C)O[C@@H]2C)C[C@H](O)[C@@H]1O [Digoxin],0.219
17,COc1cc([S+](C)[O-])ccc1-c1nc2cccnc2[nH]1 (stereo not given) [Sulmazole],63.8
18,C(=C\c1ccccc1)/CN1CCN(C(c2ccccc2)c2ccccc2)CC1 [Cinnarizine],62
19,O=C(C1CCCCC1)N1CC(=O)N2CCc3ccccc3C2C1 (stereo not given) [Praziquantel],31.5
20,COc1ccc2c(c1)c(CC(=O)O)c(C)n2C(=O)c1ccc(Cl)cc1 [Indomethacin],41.2
21,CN1CCC(=C2c3ccccc3CCc3cccnc32)CC1 [Azatadine maleate],58
22,Nc1nc2ccc(OC(F)(F)F)cc2s1 [Riluzole hydrochloride],37.4
23,C=C1c2c(Cl)ccc(O)c2C(=O)C2=C(O)[C@]3(O)C(=O)C(C(N)=O)=C(O)[C@@H](N(C)C)[C@@H]3[C@@H](O)[C@H]12.O=C(O)c1cc(S(=O)(=O)O)ccc1O [Meclocycline sulfosalicylate],23.8
24,CC(C)(C)NCC(O)COc1cccc2c1CCC(=O)N2 (stereo not given) [Carteolol hydrochloride],50.2
25,CC(=O)NCCCS(=O)(=O)O [Acamprosate calcium],40.5

# 3 compounds from above, sorted by formula weight, largest number first.
row,Structure (SMILES),HCT116-GFP viability [%]
2,CC(=O)[C@H]1CC[C@H]2[C@@H]3C=CC4=CC(=O)CC[C@@]4(C)[C@@H]3CC[C@]12C [Dydrogesterone],80
11,CCCCc1cc2ccccc2c(OCCN(C)C)n1 [Dimethisoquin hydrochloride],99.4
8,Cc1c(N(C)C)c(=O)n(-c2ccccc2)n1C [Amidopyrine],46.4

# The list goes on:

row,Structure (SMILES),HCT116-GFP viability [%]
1,CCOC(=O)O[C@]1(C(=O)COC(=O)CC)CC[C@H]2[C@@H]3CCC4=CC(=O)C=C[C@]4(C)[C@H]3[C@@H](O)C[C@@]21C [Prednicarbate],52.8
2,CC[C@H](C)[C@H](N)C1=N[C@H](C(=O)N[C@@H](CC(C)C)C(=O)N[C@H](CCC(=O)O)C(=O)N[C@H](C(=O)N[C@H]2CCCCNC(=O)[C@H](CC(N)=O)NC(=O)[C@@H](CC(=O)O)NC(=O)[C@H](Cc3cnc[nH]3)NC(=O)[C@@H](Cc3ccccc3)NC(=O)[C@H]([C@@H](C)CC)NC(=O)[C@@H](CCCN)NC2=O)[C@@H](C)CC)CS1 [Bacitracin],73.7
3,COc1ccc(OC)c(C(O)CNC(=O)CN)c1 (stereo not given) [Midodrine hydrochloride],22.8
4,CN(C)CCN1C(=O)c2ccccc2N(C)c2ccccc21 [Dibenzepine hydrochloride],59.6
5,CN1CCN(CCCN2c3ccccc3Sc3ccc(C(F)(F)F)cc32)CC1 [Trifluoperazine dihydrochloride],38
6,Nc1ccn([C@H]2CC[C@@H](CO)O2)c(=O)n1 [Zalcitabine],45.5
7,CN(C(=O)C(Cl)Cl)c1ccc(OC(=O)c2ccco2)cc1 [Diloxanide furoate],68.8
8,CN(C)CCOC(C)(c1ccccc1)c1ccccn1 (stereo not given) [Doxylamine succinate],27.5
9,CC(=O)c1ccc2c(c1)N(CCCN(C)C)c1ccccc1S2 [Acetopromazine maleate salt],52
10,CC(C)(C#N)c1cc(Cn2cncn2)cc(C(C)(C)C#N)c1 [Anastrozole],56.9
11,Oc1c(I)cc(Cl)c2cccnc12 [Clioquinol],48
12,Cc1ccc(C)c(OCCCC(C)(C)C(=O)O)c1 [Gemfibrozil],49.3
13,O=C(CCCN1CCC(O)(c2ccc(Cl)cc2)CC1)c1ccc(F)cc1 [Haloperidol],30.9
14,NC(=O)c1ccc[n+]([C@@H]2O[C@H](COP(=O)([O-])OP(=O)(O)OC[C@H]3O[C@@H](n4cnc5c(N)ncnc54)[C@H](O)[C@@H]3O)[C@@H](O)[C@H]2O)c1 [Nadide],77.4
15,CNCCC=C1c2ccccc2C=Cc2ccccc21 [Norcyclobenzaprine],64.4
16,NC(=O)OCC(O)COc1ccc(Cl)cc1 (stereo not given) [Chlorphensin carbamate],55.1
17,CN1C(C(=O)Nc2ccccn2)=C(O)c2ccccc2S1(=O)=O [Piroxicam],32.3
18,COCCOC(=O)C1=C(C)NC(C)=C(C(=O)OC(C)C)C1c1cccc([N+](=O)[O-])c1 (stereo not given) [Nimodipine],55.8
19,COC(=O)CCc1ccc(OCC(O)CNC(C)C)cc1 (stereo not given) [Esmolol hydrochloride],74.7
20,C[C@]12CCC(=O)C=C1C=C[C@@H]1[C@@H]2CC[C@@]2(C)[C@H]1CC[C@@]21CCC(=O)O1 [Canrenone],55
21,COc1cccc(N(C)C(=S)Oc2ccc3c(c2)CCCC3)n1 [Liranaftate],59.8
22,CCCNC(C)C(=O)Nc1c(C)csc1C(=O)OC (stereo not given) [Articaine hydrochloride],46.1
23,NCCc1cc[nH]n1 [Betazole hydrochloride],53
24,Cc1c(NC(C)C)c(=O)n(-c2ccccc2)n1C [Isopyrin hydrochloride],77
25,CC(C[N+](C)(C)C)OC(N)=O (stereo not given) [Bethanechol chloride],28

row,Structure (SMILES),HCT116-GFP viability [%]
1,CN(C)CCN(Cc1ccc(Cl)cc1)c1ccccn1 [Chloropyramine hydrochloride],78.9
2,NS(=O)(=O)Cc1noc2ccccc12 [Zonisamide],73.5
3,COc1ccc2c(c1)C(=O)N(CCc1ccc(S(=O)(=O)NC(=O)NC3CCCCC3)cc1)C(=O)C2(C)C [Gliquidone],49.4
4,COc1ccc([C@@H]2Sc3ccccc3N(CCN(C)C)C(=O)[C@@H]2OC(C)=O)cc1 [Diltiazem hydrochloride],47
5,"Cc1cn([C@H]2C[C@H](N=[N+]=[N-])[C@@H](CO)O2)c(=O)[nH]c1=O [Zidovudine, AZT]",18.3
6,CN(C)c1cc(NC(=O)CNC(C)(C)C)c(O)c2c1C[C@H]1C[C@H]3[C@H](N(C)C)C(O)=C(C(N)=O)C(=O)[C@@]3(O)C(O)=C1C2=O [Tigecycline],74.4
7,COc1cc(NS(=O)(=O)c2ccc(N)cc2)nc(OC)n1 [Sulfadimethoxine],65
8,CC[N+](CC)(CC(=O)Nc1c(C)cccc1C)Cc1ccccc1 [Denatonium benzoate],38.3
9,CC1(C)O[C@@H]2[C@@H](CO[C@@]3(COS(N)(=O)=O)OC(C)(C)O[C@@H]23)O1 [Topiramate],49.7
10,Cc1cccc(Nc2ccncc2S(=O)(=O)NC(=O)NC(C)C)c1 [Torsemide],33
11,NC(=O)N1c2ccccc2CC(=O)c2ccccc21 [Oxcarbazepine],50.8
12,CC(C)Cn1cnc2c(N)nc3ccccc3c21 [Imiquimod],31.6
13,CC(C)NC(=N)NC(=N)Nc1ccc(Cl)cc1 [Proguanil hydrochloride],34.3
14,COc1ccc2c3c1O[C@H]1C[C@@H](O)C=C[C@@]31CCN(C)C2 [Galanthamine hydrobromide],32.4
15,O=c1[nH]c(=O)n([C@H]2C[C@H](O)[C@@H](CO)O2)cc1C(F)(F)F [Trifluridine],14.6
16,Cc1nnc(SCC2=C(C(=O)O)N3C(=O)[C@@H](NC(=O)Cn4cnnn4)[C@H]3SC2)s1 [Cefazolin sodium salt],80
17,S=c1[nH]cnc2nc[nH]c12 [Mercaptopurine],31.2
18,CCCCCCCCNC(C)C(O)c1ccc(SC(C)C)cc1 (stereo not given) [Suloctidil],2.85
19,CC(=O)CC(c1ccc([N+](=O)[O-])cc1)c1c(O)c2ccccc2oc1=O (stereo not given) [Acenocoumarol],50.4
20,CN(Cc1ccc(C(C)(C)C)cc1)Cc1cccc2ccccc12 [Butenafine Hydrochloride],43.2
21,Nc1nnc(-c2cccc(Cl)c2Cl)c(N)n1 [Lamotrigine],47.3
22,CC[C@@]1(O)C(=O)OCc2c1cc1n(c2=O)Cc2cc3c(CN(C)C)c(O)ccc3nc2-1 [Topotecan],3.41
23,Clc1cc(Cl)c(OCC#CI)cc1Cl [Haloprogin],56.3
24,Nc1nc(=O)[nH]cc1F [Flucytosine],66.5
25,Cc1cccc(C)c1NC(=O)CN1CCN(CCCC(c2ccc(F)cc2)c2ccc(F)cc2)CC1 [Lidoflazine],35

# From the supplement of paper PMC9938546
